# PubChem BioAssay AID2551 (National Center for Advancing Translational Sciences (NCATS), 2010)
# Chains of the proteins cited; added tags and fusions are not shown. Lines headed by an entry give the natural chain unless they say otherwise; changes in a name come on top.
# UniProt P51450: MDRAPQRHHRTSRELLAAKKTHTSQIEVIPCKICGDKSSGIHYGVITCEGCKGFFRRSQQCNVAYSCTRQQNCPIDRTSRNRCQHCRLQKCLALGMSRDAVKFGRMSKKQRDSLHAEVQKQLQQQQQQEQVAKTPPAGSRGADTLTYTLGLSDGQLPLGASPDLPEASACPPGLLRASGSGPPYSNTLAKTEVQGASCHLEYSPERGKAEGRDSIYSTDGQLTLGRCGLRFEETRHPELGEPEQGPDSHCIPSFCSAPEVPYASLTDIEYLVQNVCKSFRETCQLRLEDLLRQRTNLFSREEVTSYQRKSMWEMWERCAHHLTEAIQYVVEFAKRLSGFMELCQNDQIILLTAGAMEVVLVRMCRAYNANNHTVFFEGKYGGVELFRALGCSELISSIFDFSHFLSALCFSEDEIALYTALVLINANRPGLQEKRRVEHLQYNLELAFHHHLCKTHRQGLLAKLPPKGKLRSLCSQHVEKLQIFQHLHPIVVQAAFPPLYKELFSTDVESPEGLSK
# Screen size: about 310,000 compounds; about 17,000 (5.5%) were called active. Inconclusive means that the source gave no clear call. Such entries were picked first, then a sample of the others. Calls come from the whole dose curve; as a rule, active = well fitted inhibition curve with a large enough effect; inconclusive = small, poorly fitted or top-dose-only effect, or effect the other way; inactive = no such curve, though single readings can be large or run the other way. Potencies beside an inconclusive call are fits to weak or partial responses and may not hold up.
# Target: Nuclear receptor ROR-gamma (Mus musculus) (UniProt P51450)
# Test: qHTS for inhibitors of ROR gamma transcriptional activity; note: nearly all actives have a fitted effect of over 60% in size
# Conditions: Drosophila S2 Gal4-RORgamma UAS-luciferase reporter, 20 h; series mostly up to 53.6 µM
# Outline: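 Using a luciferase readout, inhibitors were identified by reduced reporter activity in Drosophila cells coexpressing a copper-inducible Gal4–ROR gamma fusion and UAS-driven Photinus luciferase, incubated 20 hr after 700 uM copper sulfate.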
# Potency is the fitted concentration of half-maximal effect.
row,Structure (SMILES),Potency
1,Cc1ccc(-c2cc(C(=O)N/N=C\c3cnn(C)c3C)c3ccccc3n2)cc1C,active: 11.2 µM
2,O=C(O)/C=C/c1cn(-c2ccccc2)nc1-c1ccc(-c2ccc([N+](=O)[O-])cc2)o1,inactive
3,CCC(CC)c1nnc(NC(=O)[C@@H](NC(=O)c2cccc(C)c2)C(C)C)s1,active: 20 µM
4,CCC(=O)Nc1cc2nn(-c3ccc(OC)cc3)nc2cc1C,"inconclusive: 2 µM [inhibitor, full curve, poor fit]"
5,Cc1noc(C)c1CSc1nc2sc(C)c(C)c2c(=O)n1-c1ccccc1,inactive
6,COc1ccc(-c2cc(-c3ccco3)[nH]c(=O)c2C#N)cc1OC,inactive
7,C=CCN(C(=O)Cn1nc(C)n2c(cc3cc(C)ccc32)c1=O)c1ccccc1,inactive
8,O=C(CSc1nc(-c2ccco2)cc(C(F)(F)F)n1)N1CCN(Cc2ccccc2)CC1,inactive
9,Cc1ccc(C)c(NC(=O)C2C(c3ccccc3)C2(Cl)Cl)c1 (stereo not given),"inconclusive: 17.8 µM [activator, single point]"
10,CC(C)=CC(O)C/C(C)=C/COc1ccc2ccc(=O)oc2c1 (stereo not given),inactive
11,Cc1cc(NC(=O)CCC(=O)N(c2ccccc2)C(C(=O)NC(C)(C)C)c2ccccc2Cl)no1 (stereo not given),"inconclusive: 11.2 µM [activator, partial curve]"
12,Cc1ccc(Cl)cc1N1CCN(C(=O)CCC(=O)O)CC1,inactive
13,CC(C)C(=O)NC(=S)Nc1ccc(CN2CCOCC2)cc1,"inconclusive: 15.8 µM [inhibitor, single point]"
14,CC1COC(c2cccn2Cc2ccccc2Cl)=N1 (stereo not given),"inconclusive: 12.6 µM [inhibitor, partial curve]"
15,O=C(/C=C/c1ccc(OC2CSC2)cc1)c1ccccc1,inactive
16,COc1ccccc1N(C)S(=O)(=O)c1ccc(C(=O)Nc2ccc3nc(C)sc3c2)cc1,"inconclusive: 10 µM [activator, partial curve]"
17,CCCC(=O)NCCc1nc2ccccc2n1CC(=O)c1ccccc1,inactive
18,O=c1/c(=C\c2ccc(O)cc2)sc2nc(-c3ccccc3)c(-c3ccccc3)n12,inactive
19,CCOc1ccc(S(=O)(=O)N2CCCC(C(=O)NCc3cccnc3)C2)cc1C (stereo not given),"inconclusive: 20 µM [activator, partial curve, poor fit]"
20,CC(C)N(CC(=O)Nc1ccc(Cl)cc1C(F)(F)F)C(=O)CCl,"inconclusive: 35.5 µM [inhibitor, single point]"
21,CCC/C(=N/NC(=O)c1csc(C)c1C)c1ccc(Cl)s1,active: 15.8 µM
22,Cc1cc(-c2nnc(CCC(=O)NCc3cc(F)cc(C(F)(F)F)c3)o2)no1,"inconclusive: 11.2 µM [activator, partial curve]"
23,CCSc1nnc(Nc2ccc(C)cc2)s1,"inconclusive: 35.5 µM [inhibitor, single point]"
24,CCOC(=O)c1nn(-c2ccccc2F)c2nc(-c3ccco3)c(C#N)c(=O)n12,"inconclusive: 25.1 µM [activator, single point]"
25,CC12CCC(=O)N1C(C(=O)OCC(=O)Nc1cccc(S(=O)(=O)N3CCCCCC3)c1)CS2 (stereo not given),"inconclusive: 8.91 µM [activator, partial curve, poor fit]"

row,Structure (SMILES),Potency
1,Cn1c(CNC(=O)c2ccccc2)nnc1SCC(=O)Nc1nccs1,inactive
2,COC(=O)[C@@H]1C[C@H]1[C@@H](NC(=O)c1cccnc1)c1ccccc1,inactive
3,Cc1cc2cc(CNC(=O)c3cccc([N+](=O)[O-])c3)ccc2[nH]1,"inconclusive: 10 µM [activator, partial curve]"
4,O=C(c1ccc(Br)o1)N(Cc1ccccc1)c1ccccn1,"inconclusive: 11.2 µM [activator, partial curve]"
5,CC(C)(C)n1nnnc1C(c1ccc(C#N)cc1)N1CCCC2(CCCCC2)C1 (stereo not given),inactive
6,COc1ccc2cc(C(=O)C3CCCN(Cc4cccc(C)n4)C3)ccc2c1 (stereo not given),active: 2 µM
7,NC(=O)CSc1nnc(-c2ccc(O)cc2)n1Cc1ccco1,inactive
8,COc1ccc(CNc2ccc3c(c2)ncn3-c2ccccc2OC)cc1,active: 17.8 µM
9,CCN(CC)C(=O)CSc1nc2ccc(NC(=O)CSc3nccn3C)cc2s1,"inconclusive: 17.8 µM [activator, single point]"
10,O=C(N/N=C/C=C/c1ccccc1)c1cccs1,active: 2.82 µM
11,S=c1[nH]ccn1CCc1ccccc1,"inconclusive: 20 µM [inhibitor, single point]"
12,CCOC(=O)c1[nH]c2ccccc2c1NC(=S)Nc1cccc(C)c1,"inconclusive: 14.1 µM [inhibitor, single point]"
13,O=C(C1CCCN1S(=O)(=O)c1ccc(Cl)c(Cl)c1)N1CCOCC1 (stereo not given),inactive
14,O=C(CSCCO)Nc1ccc(C2CCCCC2)cc1,inactive
15,COc1ccc(NC(=O)CS(=O)CC(=O)Nc2ccc(NC(C)=O)cc2)cc1 (stereo not given),inactive
16,CN(C)C(=O)c1ccc(-c2nc(NCc3ccccc3)c3ccccc3n2)cc1,"inconclusive: 17.8 µM [activator, single point]"
17,CCCCc1ccc(NC(=S)N2CCN(c3ncccn3)CC2)cc1,active: 4.47 µM
18,COc1ccc(C2=NN(C(=O)CSc3ncccn3)C(c3cccc(OC)c3OC)C2)cc1 (stereo not given),inactive
19,O=C(COc1ccc(-c2nnc(N3CCCCC3)c3ccccc23)cc1)N1CCCCC1,"inconclusive: 1.58 µM [activator, partial curve]"
20,CC(=O)c1cccc(S(=O)(=O)N2CCC(C(=O)O)(c3ccccc3)CC2)c1,inactive
21,Cc1cc2c(cc1C)N(C(=O)CSc1nncn1C)C(C)(C)c1ssc(=S)c1-2,"inconclusive: 31.6 µM [activator, single point]"
22,Cc1cc(C(=O)Nc2ccc(Cl)cc2)c(C)n1-c1ccccc1,"inconclusive: 1.26 µM [inhibitor, partial curve, poor fit]"
23,N/C(=N\OS(=O)(=O)c1ccccc1)c1ccccn1,inactive
24,CN(C)/C=N/c1ncc(C(=O)c2ccc(Cl)cc2)s1,"inconclusive: 3.98 µM [activator, single point]"
25,Cn1c(N)c(N2CCN(c3ccccc3)CC2)c(=O)[nH]c1=O,"inconclusive: 22.4 µM [inhibitor, single point]"

# Molecules above that have a cyano group (three):
row,Structure (SMILES),Potency
6,COc1ccc(-c2cc(-c3ccco3)[nH]c(=O)c2C#N)cc1OC,inactive
24,CCOC(=O)c1nn(-c2ccccc2F)c2nc(-c3ccco3)c(C#N)c(=O)n12,"inconclusive: 25.1 µM [activator, single point]"
5,CC(C)(C)n1nnnc1C(c1ccc(C#N)cc1)N1CCCC2(CCCCC2)C1 (stereo not given),inactive
